Results taken from BindingDB's records for doi:10.1124/mol.64.6.1295 (Glaxosmithkline, 2003).
pKi: −log10 of the molar value.

By UniProt entry, the sequences of proteins in these tests, tags left out.
UniProt P50406, whole entry: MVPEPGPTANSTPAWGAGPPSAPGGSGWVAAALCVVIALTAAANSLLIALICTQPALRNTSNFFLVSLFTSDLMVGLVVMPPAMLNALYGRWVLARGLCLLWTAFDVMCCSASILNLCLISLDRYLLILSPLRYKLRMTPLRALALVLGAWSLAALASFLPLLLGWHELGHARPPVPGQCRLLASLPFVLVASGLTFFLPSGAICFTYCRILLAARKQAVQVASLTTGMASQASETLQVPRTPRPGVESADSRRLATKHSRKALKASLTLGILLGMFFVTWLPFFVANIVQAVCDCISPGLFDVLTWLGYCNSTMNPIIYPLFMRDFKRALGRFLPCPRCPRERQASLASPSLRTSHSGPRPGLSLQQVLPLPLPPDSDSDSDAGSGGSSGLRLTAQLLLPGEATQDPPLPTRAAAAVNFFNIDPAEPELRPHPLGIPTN

Biological target: 5-hydroxytryptamine receptor 6 (Homo sapiens, UniProt P50406)

SMILES: COc1ccc(NS(=O)(=O)c2ccc(I)cc2)cc1N1CCN(C)CC1 [SB-258585]
- pKi: 8.74
